The list is a part of this screen's results and no random one: it gathers tests that were run many times, whatever their T/C, doses with no T/C, and many T/C values between a quarter and a half above the control. Other doses and runs of a compound stand elsewhere. T/C is the treated group as % of the vehicle group. Some entries give survivors of the animals treated and no T/C: the source holds a T/C of zero for them, seemingly a mark for toxic or unscored doses. Some survivor counts are full or nearly so, which does not show that the dose was tolerated: the source hardly ever lists a survival T/C far under the control, and the zero likely stands for such cases as well. Counts of survivors are from the toxicity check (mostly the fifth day) where no day follows; animals may have died later. Schedules are NCI's codes, taken here to give the interval after Q, in days (D) or hours (H), and the number of doses after X. For survival time, the PubChem record calls one and a half times the control and up active, and a quarter to a half above the control has no call in these data; cut-offs in other NCI protocols can differ. Some T/C values are followed by the survivors on the day toxicity was checked, most often the fifth; where none is given, no animal had died by that day. Some doses were run more than once; the values are given in rising order. Marks such as (2×) stand for listed records that agree.
System: BDF1 mice, P388 leukemia ip, median survival T/C
Assay: NCI In Vivo Anticancer Drug Screen. Data for tumor model P388 Leukemia (intraperitoneal) in B6D2F1 (BDF1) mice
Conditions: T/C endpoint: median survival time, higher T/C = longer survival
Summary of the method: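 Transplantable tumour in mice; compound vs vehicle dosing; survival scored; ratio of treated to control reported.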

[1] = dose: 100.0 mg/kg/injection, schedule: Q01DX010 (ip), vehicle: saline
[2] = dose: 200.0 mg/kg/injection, schedule: Q04DX003 (ip), vehicle: saline with Tween-80
[3] = dose: 400.0 mg/kg/injection, schedule: Q01DX009 (ip), vehicle: saline with Tween-80
[4] = dose: 400.0 mg/kg/injection, schedule: Q04DX003 (ip), vehicle: Klucel (hydroxypropylcellulose) (HPC)
[5] = dose: 50.0 mg/kg/injection, schedule: Q01DX009 (ip), vehicle: Klucel (hydroxypropylcellulose) (HPC)
[6] = dose: 100.0 mg/kg/injection, schedule: Q01DX009 (ip), vehicle: saline with Tween-80
[7] = dose: 100.0 mg/kg/injection, schedule: Q04DX003 (ip), vehicle: Klucel (hydroxypropylcellulose) (HPC)
[8] = dose: 12.5 mg/kg/injection, schedule: Q01DX009 (ip), vehicle: Klucel (hydroxypropylcellulose) (HPC)

O=c1[nH]c(=O)n(C2CC(O)C(CO)O2)cc1F (configuration not stated)
T/C (dose: 5.0 mg/kg/injection, schedule: Q01DX010 (ip), vehicle: saline): 127 % of control | T/C (dose: 10.0 mg/kg/injection, schedule: Q01DX010 (ip), vehicle: saline, evaluated on day 30): 122, 133, 145 % of control (2×) | T/C (dose: 10.0 mg/kg/injection, schedule: Q01DX010 (ip), vehicle: saline, run until all animals had died): 154 % of control | T/C (dose: 20.0 mg/kg/injection, schedule: Q01DX010 (ip), vehicle: saline, evaluated on day 30): 141, 145, 150, 154 % of control | T/C (dose: 20.0 mg/kg/injection, schedule: Q01DX010 (ip), vehicle: saline, run until all animals had died): 177 % of control | T/C (dose: 40.0 mg/kg/injection, schedule: Q01DX010 (ip), vehicle: saline, evaluated on day 27): 216 % of control | T/C (dose: 40.0 mg/kg/injection, schedule: Q01DX010 (ip), vehicle: saline, evaluated on day 30): 125, 126, 128 (2×), 138, 145, 145 [5 of 6 alive], 150 [5 of 6 alive], 154, 160, 168, 168 [5 of 6 alive], 172, 175, 177, 186 % of control | T/C (dose: 40.0 mg/kg/injection, schedule: Q01DX010 (ip), vehicle: saline, evaluated on day 33): 190 and 209 % of control | T/C (dose: 40.0 mg/kg/injection, schedule: Q01DX010 (ip), vehicle: saline, run until all animals had died): 186 % of control | T/C (dose: 40.0 mg/kg/injection, schedule: Q01DX010 (ip), vehicle: water): 191, 200 (2×), 222 % of control | T/C (dose: 60.0 mg/kg/injection, schedule: Q01DX010 (ip), vehicle: saline, evaluated on day 27): 205 % of control | T/C (dose: 60.0 mg/kg/injection, schedule: Q01DX010 (ip), vehicle: saline, evaluated on day 30): 132, 142, 146 (3×), 162, 168, 172, 175, 179, 180, 181, 195 % of control (2×) | T/C (dose: 60.0 mg/kg/injection, schedule: Q01DX010 (ip), vehicle: saline, evaluated on day 33): 109 and 136 % of control | T/C (dose: 60.0 mg/kg/injection, schedule: Q01DX010 (ip), vehicle: water): 158, 205, 210, 250 % of control | T/C (dose: 75.0 mg/kg/injection, schedule: Q03HX024 (ip), vehicle: saline): 132 % of control | T/C (dose: 80.0 mg/kg/injection, schedule: Q01DX010 (ip), vehicle: saline, evaluated on day 27): 188 % of control | T/C (dose: 80.0 mg/kg/injection, schedule: Q01DX010 (ip), vehicle: saline, evaluated on day 30): 118, 139, 150, 150 [5 of 6 alive], 153, 157, 162, 166, 181, 181 [5 of 6 alive], 186, 190 (2×), 191 % of control | T/C (dose: 80.0 mg/kg/injection, schedule: Q01DX010 (ip), vehicle: saline, evaluated on day 33): 104 and 118 % of control | T/C (dose: 80.0 mg/kg/injection, schedule: Q01DX010 (ip), vehicle: saline, run until all animals had died): 259 % of control | T/C (dose: 80.0 mg/kg/injection, schedule: Q01DX010 (ip), vehicle: water): 105, 110, 166, 283 % of control | T/C (dose: 100.0 mg/kg/injection, schedule: Q01DX010 (ip), vehicle: saline, evaluated on day 27): 105 % of control | T/C (dose: 100.0 mg/kg/injection, schedule: Q01DX010 (ip), vehicle: saline, evaluated on day 30): 92, 100, 108, 109, 109 [4 of 6 alive], 118, 121, 141, 153, 165, 190 [5 of 6 alive], 205, 231 % of control | T/C (dose: 100.0 mg/kg/injection, schedule: Q01DX010 (ip), vehicle: saline, evaluated on day 33): 100 and 104 % of control | survivor count [1]: 6 of 6 | T/C (dose: 100.0 mg/kg/injection, schedule: Q01DX010 (ip), vehicle: water): 105, 191 [5 of 6 alive], 230, 250 % of control | T/C (dose: 103.0 mg/kg/injection, schedule: Q04DX004 (ip), vehicle: saline): 143 % of control | T/C (dose: 110.0 mg/kg/injection, schedule: Q01DX009 (ip), vehicle: saline): 191, 192, 193, 230 % of control | T/C (dose: 305.0 mg/kg/injection, schedule: Q01DX001 (ip), vehicle: saline): 142 % of control | T/C (dose: 455.0 mg/kg/injection, schedule: Q01DX001 (ip), vehicle: saline): 148 % of control

O=[N+]([O-])c1ccccc1N/N=C\c1c(Cl)[nH]c2ccccc12
survivor count (dose: 100.0 mg/kg/injection, schedule: Q04DX002 (ip), vehicle: Klucel (hydroxypropylcellulose) (HPC)): 6 of 6

O=C1CN(C(=O)CN2C(=O)c3ccccc3C2=O)C2(CCCCC2)O1
survivor count [2]: 6 of 6

CCOC(=O)CC(=O)c1ccc(C)cc1
survivor count [3]: 3 of 6

CC(C)=NNS(=O)(=O)c1ccc(C)cc1
survivor count [4]: 3 of 6

CC1(c2ccc(N(CCCl)CCCl)cc2)NC(=O)NC1=O (configuration not stated)
T/C [5]: 149 % of control [5 of 6 alive]

Cc1ccc(C(=O)NCCCOc2ccc(N)cc2Cl)cc1S(=O)(=O)F
survivor count [3]: 2 of 6

O=c1[nH]c2ccccc2c(=O)n1C1CCCCC1
survivor count (dose: 50.0 mg/kg/injection, schedule: Q01DX009 (ip), vehicle: water): 6 of 6

CCOC(=O)CC(C)C(Br)(C(=O)OCC)C(=O)OCC (configuration not stated)
T/C (dose: 200.0 mg/kg/injection, schedule: Q01DX009 (ip), vehicle: water): 130 % of control [5 of 6 alive] | survivor count (dose: 300.0 mg/kg/injection, schedule: Q01DX009 (ip), vehicle: water): 2 of 6 | survivor count (dose: 400.0 mg/kg/injection, schedule: Q04DX003 (ip), vehicle: water): 2 of 6

CC(CO)(CI)[n+]1ccccc1 (configuration not stated)
survivor count [6]: 5 of 6 | survivor count [2]: 1 of 6

O=[N+]([O-])c1cc([N+](=O)[O-])c(Cl)cc1Cl
survivor count [7]: 6 of 6

O=[N+]([O-])c1ccc(N2CCN=N2)cc1
survivor count [1]: 2 of 6 | survivor count (dose: 200.0 mg/kg/injection, schedule: Q01DX010 (ip), vehicle: saline): 0 of 6

O=C1NC(c2cccc(OCc3ccccc3)c2)Nc2ccccc21 (configuration not stated)
survivor count (dose: 6.25 mg/kg/injection, schedule: Q01DX009 (ip), vehicle: Klucel (hydroxypropylcellulose) (HPC)): 5 of 6 | T/C [8]: 127 % of control | survivor count [8]: 6 of 6 | T/C (dose: 125.0 mg/kg/injection, schedule: Q01DX009 (ip), vehicle: Klucel (hydroxypropylcellulose) (HPC)): 144 % of control

COc1ccc2c(c[n+](C)c3c4cc5c(cc4ccc23)OCO5)c1OC
survivor count (dose: 20.0 mg/kg/injection, schedule: Q01DX010 (ip), vehicle: saline): 0 of 6 | survivor count (dose: 40.0 mg/kg/injection, schedule: Q01DX010 (ip), vehicle: saline): 0 of 6

COc1cc2c(c(OC)c1OC)-c1ccc(SC)c(=O)cc1[C@@H](NC1OC(CO)C(O)C(O)C1O)CC2 (some centres not stated)
survivor count (dose: 35.0 mg/kg/injection, schedule: Q01DX009 (ip), vehicle: saline): 6 of 6 | survivor count (dose: 50.0 mg/kg/injection, schedule: Q01DX009 (ip), vehicle: saline): 5 of 6 | survivor count (dose: 75.0 mg/kg/injection, schedule: Q01DX009 (ip), vehicle: saline): 5 of 6 | survivor count (dose: 100.0 mg/kg/injection, schedule: Q01DX009 (ip), vehicle: saline): 3 of 6 | survivor count (dose: 200.0 mg/kg/injection, schedule: Q01DX009 (ip), vehicle: saline): 0 of 6 | survivor count (dose: 400.0 mg/kg/injection, schedule: Q01DX009 (ip), vehicle: saline): 0 of 6

c1ccc2sc(SSN3CC4CCC(CC4)C3)nc2c1
T/C [6]: 125 and 132 % of control | T/C (dose: 200.0 mg/kg/injection, schedule: Q01DX009 (ip), vehicle: saline with Tween-80): 136 and 145 % of control | T/C [3]: 141 % of control

CN(C)c1ccc(P(c2ccc(N(C)C)cc2)c2ccc(N(C)C)cc2)cc1
survivor count [8]: 6 of 6 | survivor count (dose: 25.0 mg/kg/injection, schedule: Q01DX009 (ip), vehicle: Klucel (hydroxypropylcellulose) (HPC)): 6 of 6 | survivor count [5]: 5 of 6 | survivor count [7]: 6 of 6 | survivor count (dose: 200.0 mg/kg/injection, schedule: Q04DX003 (ip), vehicle: Klucel (hydroxypropylcellulose) (HPC)): 6 of 6 | survivor count [4]: 6 of 6

CCOC(=O)C(CC(C)C)NC(=O)C(Cc1ccc(N(CCCl)CCCl)cc1)NC(C)=O (configuration not stated)
T/C (dose: 4.0 mg/kg/injection, schedule: Q01DX009 (ip), vehicle: other): 145 % of control | T/C (dose: 16.0 mg/kg/injection, schedule: Q01DX009 (ip), vehicle: other): 139 % of control
